Record: PubChem BioAssay AID1224830 (NIAID, 2016)
Assay: 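Genes whose knock-down alters the TNF-alpha reporter response to LPS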 (primary screen). Cells: human THP-1 monocytic leukaemia cells, TNF dual-luciferase reporter clone, PMA-differentiated to macrophage-like cells. Reagents: siRNA pool against human genes, 50 nM. Timing: LPS for 4 h, given about 3 days after siRNA transfection. Treatment: bacterial LPS (TLR4 ligand), 10 ng/ml. Detection: 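TNF firefly reporter luminescence divided by renilla, normalised to the plate median, then turned into a robust z-score for each replicate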. Direction: TNF reporter robust z-score: higher = stronger TNF reporter response to LPS. Rule for the call: 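Each well counts as active if its z-score is over 2.8 or under -1.5; controls are left without a call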.
This is one part, drawn at random, of about 18,000 reagents tested. In the full data, about 2,900 (16%) got an active call. 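Calls are made per well; low scores hint the gene aids the LPS response, high scores that it dampens it.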 Unmarked entries are inactive. Repeated entries: four replicate wells of each siRNA pool.

The opening 5 records as a preview:
gene | PubChem SID | TNF reporter robust z-score
ZNF343 (zinc finger protein 343) | SID315459247 | -1.99 (active)
ZNF343 (zinc finger protein 343) | SID315459247 | -1.75 (active)
ZNF343 (zinc finger protein 343) | SID315459247 | -1.79 (active)
ZNF343 (zinc finger protein 343) | SID315459247 | -1.78 (active)
CYP2B6 (cytochrome P450 family 2 subfamily B member 6) | SID315448206 | -0.11

The listing, from the start:
gene | PubChem SID | TNF reporter robust z-score
ZNF343 (zinc finger protein 343) | SID315459247 | -1.99 (active)
ZNF343 (zinc finger protein 343) | SID315459247 | -1.75 (active)
ZNF343 (zinc finger protein 343) | SID315459247 | -1.79 (active)
ZNF343 (zinc finger protein 343) | SID315459247 | -1.78 (active)
CYP2B6 (cytochrome P450 family 2 subfamily B member 6) | SID315448206 | -0.11
CYP2B6 (cytochrome P450 family 2 subfamily B member 6) | SID315448206 | -0.03
CYP2B6 (cytochrome P450 family 2 subfamily B member 6) | SID315448206 | 1.04
CYP2B6 (cytochrome P450 family 2 subfamily B member 6) | SID315448206 | 0.64
MNS1 (meiosis specific nuclear structural 1) | SID315457600 | -0.7
MNS1 (meiosis specific nuclear structural 1) | SID315457600 | -0.46
MNS1 (meiosis specific nuclear structural 1) | SID315457600 | -0.65
MNS1 (meiosis specific nuclear structural 1) | SID315457600 | -1.02
CCL4L1 (C-C motif chemokine ligand 4 like 1) | SID315464481 | 0.99
CCL4L1 (C-C motif chemokine ligand 4 like 1) | SID315464481 | 0.67
CCL4L1 (C-C motif chemokine ligand 4 like 1) | SID315464481 | 0.26
CCL4L1 (C-C motif chemokine ligand 4 like 1) | SID315464481 | 0.56
SERPINB2 (serpin family B member 2) | SID315450415 | -0.19
SERPINB2 (serpin family B member 2) | SID315450415 | 0.54
SERPINB2 (serpin family B member 2) | SID315450415 | 0.56
SERPINB2 (serpin family B member 2) | SID315450415 | 0.29
PLEKHG7 (pleckstrin homology and RhoGEF domain containing G7) | SID315464003 | 1.9
PLEKHG7 (pleckstrin homology and RhoGEF domain containing G7) | SID315464003 | -0.46
PLEKHG7 (pleckstrin homology and RhoGEF domain containing G7) | SID315464003 | -1.46
PLEKHG7 (pleckstrin homology and RhoGEF domain containing G7) | SID315464003 | -0.61
PLEKHG7 (pleckstrin homology and RhoGEF domain containing G7) | SID315464892 | -0.77
PLEKHG7 (pleckstrin homology and RhoGEF domain containing G7) | SID315464892 | -0.87
PLEKHG7 (pleckstrin homology and RhoGEF domain containing G7) | SID315464892 | -1.02
PLEKHG7 (pleckstrin homology and RhoGEF domain containing G7) | SID315464892 | -0.57
CDY1 (chromodomain Y-linked 1) | SID315453030 | -0.45
CDY1 (chromodomain Y-linked 1) | SID315453030 | -0.59
CDY1 (chromodomain Y-linked 1) | SID315453030 | -0.71
CDY1 (chromodomain Y-linked 1) | SID315453030 | 0.28
SEC24A (SEC24 homolog A, COPII component) | SID315454373 | -0.15
SEC24A (SEC24 homolog A, COPII component) | SID315454373 | 0.36
SEC24A (SEC24 homolog A, COPII component) | SID315454373 | -0.27
ATRX (ATRX chromatin remodeler) | SID315447491 | -0.92
ATRX (ATRX chromatin remodeler) | SID315447491 | 0.16
ATRX (ATRX chromatin remodeler) | SID315447491 | 0.39
ATRX (ATRX chromatin remodeler) | SID315447491 | 1.37
TPGS2 (tubulin polyglutamylase complex subunit 2) | SID315455569 | 3.22 (active)
TPGS2 (tubulin polyglutamylase complex subunit 2) | SID315455569 | 2.98 (active)
TPGS2 (tubulin polyglutamylase complex subunit 2) | SID315455569 | 0.23
TPGS2 (tubulin polyglutamylase complex subunit 2) | SID315455569 | -0.54
ACBD3 (acyl-CoA binding domain containing 3) | SID315458964 | 0.18
ACBD3 (acyl-CoA binding domain containing 3) | SID315458964 | -0.16
ACBD3 (acyl-CoA binding domain containing 3) | SID315458964 | 1.27
ACBD3 (acyl-CoA binding domain containing 3) | SID315458964 | 0.7
